Data from PubChem BioAssay AID504467 (National Center for Advancing Translational Sciences (NCATS), 2011).
About 7,700 (2.3%) of roughly 330,000 compounds were called active. Inconclusive results, whose numbers are uncertain, are shown with a selection of clear calls. Calls follow the shape of the dose curve; as a rule, active = well fitted inhibition curve with a large enough effect; inconclusive = small, poorly fitted or top-dose-only effect, or effect the other way; inactive = flat fitted curve, though single readings scatter. Where the call is inconclusive, the potency comes from a doubtful curve fit.

Experiment: qHTS screen for small molecules that inhibit ELG1-dependent DNA repair in human embryonic kidney (HEK293T) cells expressing luciferase-tagged ELG1; also: nearly all actives have a fitted effect of over 55% in size
Conditions: HEK293T ELG1-luciferase reporter, luminescence, 16 h, DNA damage induced by 5-fluorouridine; activity change, negative = inhibition: at 46.1 µM (top of the series)
How it was run: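 Quantitative HTS, concentration-response format. 2,000 cells/well co-treated with 5-fluorouridine and compound, 16 hr in 5% CO2 at 37 °C; ONE-Glo luminescence read after 30 min.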
% is scaled to controls: 0 for no effect and ±100 for the full control effect; potency is read from the fitted curve at half-maximal effect.

| SMILES | Potency | activity change, negative = inhibition |
| --- | --- | --- |
| Cn1c(=O)cc(SCC(=O)NCCN2CCN(c3ccccc3F)CC2)c2cc(Cl)ccc21 | inconclusive: 29.1 µM [inhibitor, single point] | – |
| O=S(=O)(NCCCCCNS(=O)(=O)c1ccccc1)c1ccccc1 | inconclusive: 29.1 µM [inhibitor, single point] | – |
| CN(Cc1ccccc1)C(=O)c1nc2ccccn2c1CN1CCc2sccc2C1 | inconclusive: 25.9 µM [inhibitor, partial curve, poor fit] | – |
| NC(=O)SCC(=O)Nc1ccc(Cl)cc1 | – | inactive: -9.34% |
| Cc1ccc(NC(=O)NC(=O)CN2CCC(C(N)=O)CC2)c(C)c1 | inconclusive: 14.6 µM [activator, partial curve] | – |
| Cc1ccc(NC(=O)Cn2c(=O)oc3cc(S(=O)(=O)N4CCC(C)CC4)ccc32)cc1C | inconclusive: 9.2 µM [inhibitor, partial curve] | – |
| C[C@@H](NC(=O)[C@@H]1Cc2ccccc2CN1)C(=O)Nc1ccc2c(c1)OCCO2 | inconclusive: 6.51 µM [activator, partial curve] | – |
| C[C@H](NC(=O)c1ccc(Cl)cc1)C(=O)NCCc1ccc(S(N)(=O)=O)cc1 | – | inactive: 3.95% |
| O=C(Cc1ccccc1)Nn1c(O)c(/C=C2\C=Nc3ccccc32)sc1=S | inconclusive: 25.9 µM [inhibitor, partial curve, poor fit] | – |
| CCOC(=O)C1=C(C)NC(=O)NC1c1ccc([N+](=O)[O-])o1 (stereo unspecified) | – | inactive: 24.4% |
| COc1ccc(OC)c(/C=N/NC(=O)c2[nH]nc3c2CCc2ccccc2-3)c1 | inconclusive: 25.9 µM [inhibitor, single point] | – |
| Cc1ccc(C2=Nc3ccccc3SC(c3cccc([N+](=O)[O-])c3)C2)cc1 (stereo unspecified) | inconclusive: 20.6 µM [activator, single point] | – |
| COc1cc(CNCc2cc(OC)c(OC)c(OC)c2)cc(OC)c1 | – | inactive: -22.2% |
| Cc1nnc(SCCn2c(N3CCC(Cc4ccccc4)CC3)nc3c2c(=O)[nH]c(=O)n3C)s1 | active: 9.2 µM | – |
| O=P(OC1CCCCC1)(OC1CCCCC1)C(Nc1ccccc1)c1cccnc1 (stereo unspecified) | inconclusive: 29.1 µM [inhibitor, single point] | – |
| O=C(N/N=C/c1cc([N+](=O)[O-])ccc1N1CCCCCC1)c1ccccn1 | inconclusive: 18.3 µM [inhibitor, single point] | – |
| CC(C)c1cc(CNC(=O)c2cc(COc3cncc(Cl)c3)on2)on1 | inconclusive: 11.6 µM [inhibitor, partial curve, poor fit] | – |
| COc1ccc(C(=O)CN2C(=O)C(C)(C)Oc3ccc(C(=O)N4CCCCCC4)cc32)cc1 | inconclusive: 20.6 µM [inhibitor, partial curve, poor fit] | – |
| Cc1cc(N2CCN(Cc3ccccc3)CC2)n2nc(C)c(-c3ccccc3)c2n1 | inconclusive: 1.16 µM [inhibitor, single point] | – |
| CC(C)=CCC/C(C)=C/C=N/NC(=O)c1ccc([N+](=O)[O-])cc1 | – | inactive: 6.05% |
| COCC(=O)Nc1ccc(Br)cc1 | inconclusive: 29.1 µM [activator, partial curve, poor fit] | – |
| N#Cc1c2n(c3c(=O)n(Cc4ccccc4Cl)cnc13)CCCCC2 | inconclusive: 29.1 µM [inhibitor, single point] | – |
| CCOC(=O)Cn1c(=NC(=O)c2nc3ccccc3s2)sc2cc(S(N)(=O)=O)ccc21 | inconclusive: 2.31 µM [inhibitor, single point] | – |
| COc1cc(OC)c(C(=O)NCc2ccco2)cc1OC | – | inactive: 1.67% |

Exported tab-delimited: part of the list above.
SMILES	Potency	activity change, negative = inhibition
CN(Cc1ccccc1)C(=O)c1nc2ccccn2c1CN1CCc2sccc2C1	inconclusive: 25.9 µM [inhibitor, partial curve, poor fit]	–
NC(=O)SCC(=O)Nc1ccc(Cl)cc1	–	inactive: -9.34%
Cc1ccc(NC(=O)NC(=O)CN2CCC(C(N)=O)CC2)c(C)c1	inconclusive: 14.6 µM [activator, partial curve]	–

Later entries:

| SMILES | Potency | activity change, negative = inhibition |
| --- | --- | --- |
| COc1ccc(N=CC2=C(O)c3ccccc3C2=O)c(OC)c1 | inconclusive: 0.103 µM [activator, full curve, poor fit] | – |
| O=c1cnn(Cc2ccc(F)cc2)c2ccccc12 | – | inactive: 4.08% |
| CCn1c(=O)[nH]c2cc(Cl)c(Cl)cc21 | – | inactive: 22.2% |
| COc1ccc(CNC(=O)COC(=O)c2ccccc2C(=O)c2ccccc2)cc1 | – | inactive: -10% |
| N=C1/C(=C\c2coc3ccccc3c2=O)C(=O)N=C2SC(c3ccncc3)=NN12 | inconclusive: 16.4 µM [activator, partial curve, poor fit] | – |
| COc1ccccc1C(=O)Nc1ccncc1 | – | inactive: -0.998% |
| COc1ccccc1CNC(=O)C(=O)NCC1OCCCN1S(=O)(=O)c1ccc(F)cc1C (stereo unspecified) | – | inactive: -26.4% |
| Cc1ccc2c(c1)C(=O)C(=O)N2Cc1ccc(Cl)cc1 | inconclusive: 23.1 µM [activator, single point] | – |
| Nc1c(-c2ccc(Cl)cc2)cnn1-c1cccc([N+](=O)[O-])c1 | inconclusive: 20.6 µM [activator, single point] | – |
| COc1ccc(C2c3[nH]c4ccccc4c3CCN2C(=O)c2cn3ccccc3n2)c(F)c1 (stereo unspecified) | – | inactive: -9.01% |
| CCOC(=O)C1=C(COC(=O)C2CC(=O)N(CCc3ccccc3)C2)NC(=O)NC1C (stereo unspecified) | – | inactive: -0.576% |
| O=C(CCN1C(=O)C2C3CC(C(Br)C3Br)C2C1=O)OCC(=O)c1cccc([N+](=O)[O-])c1 (stereo unspecified) | inconclusive: 0.58 µM [inhibitor, single point] | – |
| CSc1ncccc1C(=O)OCC(=O)NC(N)=O | – | inactive: 21.4% |
| COc1ccc(/C=C/C(=O)Nc2sc3c(c2C(=O)NCc2cccnc2)CCCC3)cc1 | inconclusive: 14.6 µM [inhibitor, partial curve] | – |
| COC(=O)c1sccc1NC(=O)c1cc2c(s1)CCCC2 | inconclusive: 18.4 µM [activator, partial curve, poor fit] | – |
| COc1ccc(CCNC(=O)C2=CC=CN3CCS(=O)(=O)N=C23)cc1 | – | inactive: 25.2% |
| O=C(Nc1ccc(N2CCOCC2)cc1)c1cc2c(s1)CCCCC2 | – | inactive: -19.7% |
| Fc1ccc(Nc2nc(NCc3ccco3)c3ccccc3n2)cc1 | active: 23.1 µM | – |
| Cc1c(O)ccc(C(=O)COc2ccc(F)cc2)c1O | inconclusive: 11.6 µM [activator, partial curve] | – |
| CCOc1[nH]n(-c2ccccc2)c(=O)c1C=Nc1ccc(C)cc1 | – | inactive: -2.91% |
| CCOC(=O)C1(Cc2ccccc2C)CCCN(C(=O)COC)C1 (stereo unspecified) | inconclusive: 18.3 µM [activator, single point] | – |
| COc1ccccc1NC(=O)c1ccc(NC(=O)CSc2nc(N)cc(=O)[nH]2)cc1 | inconclusive: 29.1 µM [activator, single point] | – |
| CCOc1ccccc1NC(=O)CNC(=O)c1nn(-c2ccc(OC)c(OC)c2)c(=O)c2ccccc12 | inconclusive: 20.6 µM [inhibitor, partial curve] | – |
| Cc1cc(C)c2nc(NCc3ccccc3O)sc2c1 | inconclusive: 18.3 µM [activator, partial curve] | – |

| SMILES | Potency | activity change, negative = inhibition |
| --- | --- | --- |
| Cc1cc(C)n(CC(O)Cn2c3ccc(Br)cc3c3cc(Br)ccc32)c(=O)n1 (stereo unspecified) | inconclusive: 29.1 µM [inhibitor, single point] | – |
| Cc1nn2c(-c3ccccc3)nnc2c2ccccc12 | inconclusive: 16.4 µM [activator, partial curve] | – |
| Cc1nc(NCCc2ccccc2)c(C#N)c(C)c1[N+](=O)[O-] | inconclusive: 29.1 µM [inhibitor, single point] | – |
| Cc1cc(C)cc(N(CC(=O)NCC2CCCO2)C(=O)CN2C(=O)COc3ccccc32)c1 (stereo unspecified) | – | inactive: -3.54% |
| O=C(Nc1nc2ccccc2n1CCN1CCOCC1)c1cn(-c2ccccc2)nc1-c1ccccc1 | active: 18.4 µM | – |
| COCC(C)Nc1ccc(S(=O)(=O)N2CCCC2)cc1[N+](=O)[O-] (stereo unspecified) | – | inactive: 2.85% |
| C=CCn1sc(=N)c(C#N)c1N | inconclusive: 23.1 µM [inhibitor, partial curve, poor fit] | – |
| Brc1ccccc1OCCCn1cnc2ccccc21 | inconclusive: 8.2 µM [activator, partial curve] | – |
| CN(C)CCCN(C(=O)c1cc(-c2cccs2)nc2ccccc12)c1nc2c(F)cccc2s1 | – | inactive: -18.4% |
| Oc1ccc(-c2cn3ccccc3n2)cc1 | inconclusive: 5.8 µM [activator, partial curve] | – |
| O=C(O)CC1S/C(=N/N=C/C=C/c2ccccc2)NC1=O (stereo unspecified) | inactive | – |
| CCOC(=O)/C=C1\NC(C)(C)Cc2cc(OC)c(OC)cc21 | – | inactive: 5.96% |
| CC(C)(C)Nc1nc2ccc([N+](=O)[O-])cc2o1 | inconclusive: 18.3 µM [activator, partial curve, poor fit] | – |
| COc1cc(-c2nc3c(c(C)nn3-c3ccccc3)c3cc(OC)c(OC)cc23)ccc1O | active: 18.4 µM | – |
| CCOC(=O)C1=C(O)/C(=C/c2ccccn2)SC1=Nc1ccc(Cl)cc1 | active: 20.6 µM | – |
| O=C(CSc1nnc(Nc2ccccc2F)s1)NC1CCS(=O)(=O)C1 (stereo unspecified) | inconclusive: 25.9 µM [activator, single point] | – |
| O=C(CNC(=O)c1ccccc1Br)N/N=C\c1cc([N+](=O)[O-])cc(Br)c1O | – | inactive: -11.4% |
| N#Cc1c(N)nc(N2CCCC2)c(C#N)c1-c1ccc(Cl)cc1 | inconclusive: 29.1 µM [inhibitor, single point] | – |
| O=C(CSc1oc(-c2cccs2)nc1S(=O)(=O)c1ccccc1)NC1CCCCC1 | inconclusive: 29.1 µM [inhibitor, single point] | – |
| O=C(c1ccc2c(=O)n(CCc3ccccc3)c(=O)[nH]c2c1)N1CCN(c2ccc(F)cc2)CC1 | inconclusive: 9.2 µM [inhibitor, partial curve] | – |
| Clc1ccc2nc(N3CCNCC3)nc(-c3ccccc3)c2c1 | inconclusive: 0.58 µM [activator, full curve, poor fit] | – |
| O=C(CN1C(=O)c2ccccc2S1(=O)=O)Nc1ccc([N+](=O)[O-])cc1 | – | inactive: 8.06% |
| O=C(NCC(=O)N1CCCC1)c1ccc(Cl)cc1 | inconclusive: 20.6 µM [activator, single point] | – |

Looked up by structure from the list above:

| SMILES | Potency | activity change, negative = inhibition |
| --- | --- | --- |
| CC(C)(C)Nc1nc2ccc([N+](=O)[O-])cc2o1 | inconclusive: 18.3 µM [activator, partial curve, poor fit] | – |
| NC(=O)SCC(=O)Nc1ccc(Cl)cc1 | – | inactive: -9.34% |
